Data published in article PMC4464284.
No constants are given. Whether binding was seen depends on the method and setting. In cells and extracts the contact can be indirect. Some entries that bind do so weakly or less than the wild type.

Amino acid sequences for entries named in this document (tags omitted).
UniProt Q04207: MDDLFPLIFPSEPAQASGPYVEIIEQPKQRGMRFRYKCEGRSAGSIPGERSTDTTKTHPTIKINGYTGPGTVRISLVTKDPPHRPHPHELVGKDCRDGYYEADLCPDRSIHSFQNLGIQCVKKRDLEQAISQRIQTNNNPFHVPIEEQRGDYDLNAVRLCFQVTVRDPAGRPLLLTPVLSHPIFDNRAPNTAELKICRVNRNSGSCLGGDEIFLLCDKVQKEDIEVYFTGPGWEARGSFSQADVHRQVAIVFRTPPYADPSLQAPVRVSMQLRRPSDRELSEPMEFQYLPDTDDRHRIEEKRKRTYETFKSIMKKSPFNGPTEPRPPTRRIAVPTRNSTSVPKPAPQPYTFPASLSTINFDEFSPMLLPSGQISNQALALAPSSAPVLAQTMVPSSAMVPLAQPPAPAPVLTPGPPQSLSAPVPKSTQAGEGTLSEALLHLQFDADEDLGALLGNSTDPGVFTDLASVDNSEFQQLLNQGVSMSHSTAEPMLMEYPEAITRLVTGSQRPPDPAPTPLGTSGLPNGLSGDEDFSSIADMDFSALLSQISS

Target: T1, vitamin D receptor (mouse (endogenous in placenta)) (UniProt P48281)
T1 sequence: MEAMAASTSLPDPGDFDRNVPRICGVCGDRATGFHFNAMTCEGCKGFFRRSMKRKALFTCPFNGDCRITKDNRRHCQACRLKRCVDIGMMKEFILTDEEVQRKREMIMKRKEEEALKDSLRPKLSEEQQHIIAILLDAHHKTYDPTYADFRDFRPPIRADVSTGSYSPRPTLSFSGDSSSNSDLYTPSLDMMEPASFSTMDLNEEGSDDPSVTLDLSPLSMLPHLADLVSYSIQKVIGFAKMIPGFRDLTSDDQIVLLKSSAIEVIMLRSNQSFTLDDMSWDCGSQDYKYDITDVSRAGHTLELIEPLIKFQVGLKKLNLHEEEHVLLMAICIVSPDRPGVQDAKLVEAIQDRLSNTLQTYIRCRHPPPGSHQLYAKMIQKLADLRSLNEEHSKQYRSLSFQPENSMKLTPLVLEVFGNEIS
Assay: co-IP; placental cytosol proteins (300 μg tissue lysate; 0.6% Nonidet P-40, 0.5% sodium deoxycholate, 150 mM NaCl, 50 mM Tris-HCl pH 7.5) precleared with protein A/G-agarose, incubated with agarose-conjugated VDR antibody at 4 °C overnight, washed with cold RIPA buffer, immunoblot for NF-κB p65; pregnant mice treated with saline, VitD3, LPS or VitD3 + LPS, placentas collected 2 h after LPS

## nuclear factor kappa B p65 subunit (from UniProt Q04207 1-549)
  binding: binds
